{
  "source": "paper PMC8241731",
  "molecular_target": "T1, Rac GTPase activating protein 1 (human (endogenous in NOZ and GBC-SD)) (UniProt Q9H0H5)",
  "T1 sequence": "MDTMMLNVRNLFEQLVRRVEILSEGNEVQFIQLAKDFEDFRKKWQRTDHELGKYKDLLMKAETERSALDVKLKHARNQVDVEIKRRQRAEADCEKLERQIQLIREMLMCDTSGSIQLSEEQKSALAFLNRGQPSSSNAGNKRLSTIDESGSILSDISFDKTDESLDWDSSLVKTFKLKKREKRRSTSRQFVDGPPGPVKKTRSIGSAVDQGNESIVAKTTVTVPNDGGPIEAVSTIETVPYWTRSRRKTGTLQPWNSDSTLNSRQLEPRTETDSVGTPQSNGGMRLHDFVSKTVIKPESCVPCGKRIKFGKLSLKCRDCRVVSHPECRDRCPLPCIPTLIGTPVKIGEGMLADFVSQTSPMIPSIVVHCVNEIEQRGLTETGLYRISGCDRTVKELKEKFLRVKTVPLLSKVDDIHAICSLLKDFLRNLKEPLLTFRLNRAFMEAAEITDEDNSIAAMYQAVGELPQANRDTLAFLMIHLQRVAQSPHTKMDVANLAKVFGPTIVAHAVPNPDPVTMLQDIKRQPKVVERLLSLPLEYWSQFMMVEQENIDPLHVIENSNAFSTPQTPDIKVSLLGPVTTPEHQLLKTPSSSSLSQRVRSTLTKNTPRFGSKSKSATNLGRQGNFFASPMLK",
  "assay": "affinity purification with mass spectrometry; IP-MS for binding factors of RACGAP1; sample run on a 10% acrylamide gel, in-gel trypsin digestion, MS-MS; candidates with UnquePepCount ≥3, overlapped with the STRING database (interaction score ≥0.900); cell line not stated",
  "note": "These are yes or no findings as the source states them, for the method shown. In cells and extracts the contact can be indirect. Here binding means that the protein was enriched with, or labelled near, the bait; the list need not be complete.",
  "data": [
    {"binder": "DNA ligase 3 (protein, UniProt P49916 43-1009) LLHGHPLFLRRKPVLSFQGSHLRSRATYLVFLPGLHVGLCSGPCEMAEQRFCVDYAKRGTAGCKKCKEKIVKGVCRIGKVVPNPFSESGGDMKEWYHIKCMFEKLERARATTKKIEDLTELEGWEELEDNEKEQITQHIADLSSKAAGTPKKKAVVQAKLTTTGQVTSPVKGASFVTSTNPRKFSGFSAKPNNSGEAPSSPTPKRSLSSSKCDPRHKDCLLREFRKLCAMVADNPSYNTKTQIIQDFLRKGSAGDGFHGDVYLTVKLLLPGVIKTVYNLNDKQIVKLFSRIFNCNPDDMARDLEQGDVSETIRVFFEQSKSFPPAAKSLLTIQEVDEFLLRLSKLTKEDEQQQALQDIASRCTANDLKCIIRLIKHDLKMNSGAKHVLDALDPNAYEAFKASRNLQDVVERVLHNAQEVEKEPGQRRALSVQASLMTPVQPMLAEACKSVEYAMKKCPNGMFSEIKYDGERVQVHKNGDHFSYFSRSLKPVLPHKVAHFKDYIPQAFPGGHSMILDSEVLLIDNKTGKPLPFGTLGVHKKAAFQDANVCLFVFDCIYFNDVSLMDRPLCERRKFLHDNMVEIPNRIMFSEMKRVTKALDLADMITRVIQEGLEGLVLKDVKGTYEPGKRHWLKVKKDYLNEGAMADTADLVVLGAFYGQGSKGGMMSIFLMGCYDPGSQKWCTVTKCAGGHDDATLARLQNELDMVKISKDPSKIPSWLKVNKIYYPDFIVPDPKKAAVWEITGAEFSKSEAHTADGISIRFPRCTRIRDDKDWKSATNLPQLKELYQLSKEKADFTVVAGDEGSSTTGGSSEENKGPSGSAVSRKAPSKPSASTKKAEGKLSNSNSKDGNMQTAKPSAMKVGEKLATKSSPVKVGEKRKAADETLCQTKVLLDIFTGVRLYLPPSTPDFSRLRRYFVAFDGDLVQEFDMTSATHVLGSRDKNPAAQQVSPEWIWACIRKRRLVAPC", "values": [
      {"measurement": "binding", "result": "binds"}
    ]}
  ]
}
